Data taken from PubChem BioAssay AID1224904, deposited by Broad Institute (2016).

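293T-iDUX4 dual-reporter cells; luminescence of the tet-on Italica luciferase control is read after 24 h. The test concentration is not given here. Percent change in the Italica control signal; more negative values mean stronger inhibition, which points to nonspecific, tet-on or cytotoxic effects.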

Values are in %. Common to all entries: measured here: Italica tet-on control reporter. This is a side read-out of the assay, for part of the compounds, not drawn at random.

| # | compound | activity change (%) |
|---|---|---|
| 1 | `O=C(C[C@H]1CC[C@H]2[C@@H](COC[C@H](O)CN2Cc2ccc(Oc3ccccc3)cc2)O1)N1CCCCC1` | -23.61 |
| 2 | `O=C(C[C@@H]1CC[C@@H]2[C@H](COC[C@@H](O)CN2Cc2ccc(Oc3ccccc3)cc2)O1)N1CCCCC1` | -6.358 |
| 3 | `COc1cccc(-c2ccc3c(c2)[C@H]2[C@H](CCN2S(=O)(=O)c2ccc(F)cc2)[C@@H](CO)N3C)c1` | -61.55 |
| 4 | `C[C@@H]1CN([C@H](C)CO)C(=O)c2c(c3ccccc3n2C)-c2ccccc2CO[C@@H]1CN(C)C(=O)[C@H](C)c1ccccc1` | 1.871 |
| 5 | `COc1ccc(S(=O)(=O)N2C[C@@H](O)COC[C@@H]3O[C@@H](CC(=O)N[C@@H]4CCN(Cc5ccccc5)C4)CC[C@H]32)cc1` | -3.517 |
| 6 | `Cc1cccc(-c2ccc([C@H]3[C@H](CO)N4CCCCN(CCC(F)(F)F)C[C@@H]34)cc2)c1` | -6.993 |
| 7 | `N#C[C@@H]1[C@H](c2ccccc2C2=CCCC2)[C@@H](CO)N1S(=O)(=O)c1ccccc1` | -8.189 |
| 8 | `O=C(C[C@@H]1CC[C@H]2[C@@H](COC[C@H](O)CN2S(=O)(=O)c2ccccc2Cl)O1)NCc1ccccc1Cl` | -6.798 |
| 9 | `C[C@H]1CCCCO[C@H](CN(C)C(=O)NC2CCCCC2)[C@@H](C)CN([C@@H](C)CO)C(=O)c2cc(NC(=O)Cc3ccccc3)ccc2O1` | -95.3 |
| 10 | `O=C(c1cnccn1)N1CC(=O)N2[C@H](CO)[C@H](c3ccc(C#CCC4CCCC4)cc3)[C@H]2C1` | -15.84 |
| 11 | `O=C(C[C@@H]1CC[C@H]2[C@@H](COC[C@H](O)CN2Cc2ccccc2F)O1)N[C@H]1CCN(Cc2ccccc2)C1` | -1.317 |
| 12 | `COc1cccc(S(=O)(=O)N(C)C[C@@H]2OCc3ccccc3-c3ccccc3C(=O)N([C@@H](C)CO)C[C@@H]2C)c1` | -9.069 |
| 13 | `O=C(Nc1ccccc1)N1C[C@@H]2N[C@H](C1)C2c1ccc(-c2ccccc2F)cc1` (some centres unmarked) | -64.97 |
| 14 | `N#Cc1ccc(-c2ccc([C@H]3[C@@H](CO)N4CCCCN(C(=O)Nc5ccc(F)cc5)C[C@@H]34)cc2)cc1` | -47.27 |
| 15 | `CCC(=O)N1CCC2(CC1)CN(Cc1ccccc1Cl)[C@H](CO)c1c2c2ccc(OC)cc2n1C` | -21.9 |
| 16 | `O=C(C[C@H]1CC[C@@H]2[C@H](COC[C@@H](O)CN2S(=O)(=O)c2ccc(Oc3ccccc3)cc2)O1)Nc1ccccc1` | -30.17 |
| 17 | `CO[C@H]1CN(C)C(=O)c2cc(NC(=O)c3ccc(Oc4ccccc4)cc3)ccc2OC[C@H](C)NC[C@H]1C` | -47.94 |
| 18 | `O=C(NC1CCC1)[C@@H]1[C@@H](CO)[C@@H]2Cn3c(cccc3=O)[C@@H]2N1CCc1ccccc1` | 6.577 |
| 19 | `CS(=O)(=O)Nc1ccc2c(c1)[C@H]1C[C@@H](CC(=O)NCc3ccc(Oc4ccccc4)cc3)O[C@H](CO)[C@H]1O2` | -53.33 |
| 20 | `C[C@H](CO)N1C[C@H](C)[C@@H](CN(C)CC2CCOCC2)Oc2cc(C#Cc3ccccc3F)ccc2S1(=O)=O` | -28.68 |
| 21 | `COc1ccc(S(=O)(=O)N(C)C[C@H]2OCc3ccccc3-c3c(n(C)c4ccccc34)C(=O)N([C@@H](C)CO)C[C@@H]2C)cc1` | -13.72 |
| 22 | `COc1ccc2c3c(n(C)c2c1)[C@H](CO)N(Cc1ccccc1)CC31CCN(C(=O)C2CC2)CC1` | -20.56 |
| 23 | `O=C(C[C@@H]1C[C@H]2c3cc(NS(=O)(=O)c4ccc(F)cc4)ccc3O[C@H]2[C@H](CO)O1)N1CCc2ccccc2C1` | -25.8 |
| 24 | `COc1ccc2c3c(n(C)c2c1)[C@H](CO)N(S(=O)(=O)c1ccc(C)cc1)CC31CN(C(=O)c2ccccn2)C1` | -13.02 |
| 25 | `COc1cc(CN2CC3(CN(C(=O)c4ccc5c(c4)OCO5)C3)c3c(n(C)c4cc(OC)ccc34)[C@H]2CO)cc(OC)c1` | -34.42 |
| 26 | `C[C@@H](NC(=O)C[C@H]1CC[C@H]2[C@@H](COC[C@H](O)CN2Cc2ccc(C(F)(F)F)cc2)O1)c1ccccc1` | -12.66 |
| 27 | `COc1ccc(C#Cc2ccc([C@@H]3[C@@H](CO)N4CCCCN(C(=O)Nc5ccccc5)C[C@@H]34)cc2)cc1` | -16.5 |
| 28 | `CO[C@H](C(=O)N(C)C[C@@H]1OCc2ccccc2-c2c(n(C)c3ccccc23)C(=O)N([C@@H](C)CO)C[C@@H]1C)c1ccccc1` | -91.98 |
| 29 | `CN(C)C(=O)c1ccc(-c2ccc3c(c2)[C@H]2[C@H](CCN2C(=O)c2ccc4c(c2)OCO4)[C@H](CO)N3)cc1` | -9.899 |
| 30 | `COc1ccc2c3c(n(C)c2c1)[C@@H](CO)N(C(C)=O)CC31CN(C(=O)c2ccccc2)C1` | -9.325 |
| 31 | `C[C@@H](NC(=O)[C@@H]1[C@@H](CO)[C@@H]2Cn3c(cccc3=O)[C@@H]2N1CC1CCCCC1)c1ccccc1` | -5.41 |
| 32 | `O=C(C[C@@H]1CC[C@H]2[C@@H](COC[C@H](O)CN2Cc2ccc(Cl)cc2)O1)Nc1nccs1` | -18.57 |
| 33 | `C[C@H]1CN([C@@H](C)CO)C(=O)c2ccccc2-c2ccccc2CO[C@H]1CN(C)S(=O)(=O)c1ccsc1` | -6.151 |
| 34 | `COc1cccc(-c2ccc3c(c2)[C@@H]2[C@@H](CCN2S(=O)(=O)c2cccc(OC)c2)[C@H](CO)N3)c1` | -47.24 |
| 35 | `CCCC#Cc1ccc([C@@H]2[C@H](CO)N3CCCCN(Cc4cccnc4)C[C@@H]23)cc1` | -1.294 |
| 36 | `N#Cc1cccc(-c2ccc(C3[C@H]4CNC[C@@H]3N4Cc3cc(F)ccc3F)cc2)c1` (some centres unmarked) | -95.29 |
| 37 | `O=C(Nc1cccc(F)c1)N1CCCCN2[C@H](CO)[C@@H](c3ccc(C#Cc4cccnc4)cc3)[C@@H]2C1` | -13.22 |
| 38 | `COc1ccc(-c2ccc3c(c2)[C@@H]2[C@@H](CCN2C(=O)Cc2ccccn2)[C@@H](CO)N3C)cc1` | -8.598 |
| 39 | `COc1ccccc1CNC(=O)C[C@H]1C[C@@H]2c3cc(NC(=O)Nc4ccc(C(F)(F)F)cc4)ccc3O[C@@H]2[C@H](CO)O1` | -25.13 |
| 40 | `O=C1CN(S(=O)(=O)c2ccccc2)C[C@H]2[C@H](c3ccc(C#CCc4ccccc4)cc3)[C@H](CO)N12` | -9.282 |
| 41 | `O=S(=O)(c1cccs1)N1CCCCN2[C@H](CO)[C@H](c3ccc(/C=C/c4ccccc4)cc3)[C@H]2C1` | -44.07 |
| 42 | `COc1ccc(S(=O)(=O)Nc2ccc3c(c2)OC[C@@H](C)N(Cc2cc(F)ccc2F)C[C@@H](C)[C@H](OC)CN(C)C3=O)cc1` | -5.272 |
| 43 | `O=C(Nc1ccc2c(c1)OCO2)N1C[C@@H]2N[C@H](C1)C2c1ccc(C=Cc2ccccc2)cc1` (some centres unmarked) | -96.31 |
| 44 | `CCCNC(=O)[C@@H]1[C@@H](CO)[C@@H]2Cn3c(ccc(-c4ccccc4)c3=O)[C@H]1N2Cc1ccccc1F` | -6.495 |
| 45 | `COc1ccc2c3c(n(C)c2c1)[C@@H](CO)N(C(=O)c1ccccc1)CC31CN(CC2CC2)C1` | -10.08 |
| 46 | `CCC(=O)N1CCCCN2[C@@H](CO)[C@@H](c3ccc(/C=C/c4ccccc4)cc3)[C@@H]2C1` | -15.36 |
| 47 | `Cc1cccc(-c2ccc(C3[C@@H]4CN(C(=O)C5CCCCC5)C[C@H]3N4)cc2)c1` (some centres unmarked) | -88.62 |
| 48 | `O=C(Nc1ccc(F)cc1)N1CC(=O)N2[C@H](C1)[C@H](c1ccc(C#Cc3ccccc3)cc1)[C@@H]2CO` | -48.95 |
| 49 | `C[C@H]1CN([C@@H](C)CO)C(=O)c2c(c3ccccc3n2C)-c2ccccc2CO[C@@H]1CN(C)S(=O)(=O)c1ccc(Cl)cc1` | -28.41 |
| 50 | `COc1ccccc1C#Cc1ccc([C@H]2[C@@H](CO)N3CCCCN(S(C)(=O)=O)C[C@H]23)cc1` | -11.72 |
| 51 | `COc1ccccc1-c1ccc2c(c1)[C@@H]1[C@@H](CCN1S(=O)(=O)c1cccc(C)c1)[C@H](CO)N2` | -82.95 |
| 52 | `COc1ccc(S(=O)(=O)N(C)C[C@@H]2OCc3ccccc3-c3c(n(C)c4ccccc34)C(=O)N([C@H](C)CO)C[C@H]2C)cc1` | -30.4 |
| 53 | `Cc1cccc(-c2ccccc2[C@H]2[C@@H](C#N)N(c3ncc(-c4ccccc4)s3)[C@@H]2CO)c1` | -20.26 |
| 54 | `O=S(=O)(c1cccs1)N1CCCCN2[C@H](CO)[C@@H](c3ccc(Br)cc3)[C@@H]2C1` | -19.24 |
| 55 | `COc1ccc2c3c(n(C)c2c1)[C@@H](CO)N(C(=O)Nc1ccc(F)cc1)CC31CN(Cc2cccc(F)c2)C1` | -80.51 |
| 56 | `COc1ccc(C#Cc2ccc([C@@H]3[C@H]4CN(C(=O)c5cccnc5)CC(=O)N4[C@H]3CO)cc2)cc1` | -17.4 |
| 57 | `COc1ccc2c3c(n(C)c2c1)[C@@H](CO)N(C(=O)c1ccccc1)CC31CN(Cc2ccccc2OC)C1` | -82.04 |
| 58 | `COc1ccccc1CNC(=O)C[C@@H]1CC[C@H]2[C@@H](COC[C@H](O)CN2C(=O)Nc2ccc(C(F)(F)F)cc2)O1` | -15.56 |
| 59 | `COc1ccccc1-c1ccc2c(c1)[C@@H]1[C@@H](CCN1S(=O)(=O)c1ccc(C)cc1)[C@H](CO)N2` | -73.19 |
| 60 | `CCC(=O)N1CCCCN2[C@@H](CO)[C@@H](c3ccc(C#Cc4ccccc4)cc3)[C@@H]2C1` | -12.13 |
| 61 | `COc1ccc2c3c([nH]c2c1)[C@H](CO)N(Cc1cccc(Cl)c1)CC31CN(C(C)=O)C1` | -65.2 |
| 62 | `COc1ccccc1NC(=O)N1CCCCN2[C@H](CO)[C@@H](c3ccc(-c4cccc(C#N)c4)cc3)[C@H]2C1` | -6.757 |
| 63 | `COc1ccc2c3c([nH]c2c1)[C@H](CO)N(Cc1ccccc1OC)CC31CN(C(C)=O)C1` | -35.93 |

The last 5 entries again:

* COc1ccccc1-c1ccc2c(c1)[C@@H]1[C@@H](CCN1S(=O)(=O)c1ccc(C)cc1)[C@H](CO)N2 : activity change -73.19%
* CCC(=O)N1CCCCN2[C@@H](CO)[C@@H](c3ccc(C#Cc4ccccc4)cc3)[C@@H]2C1 : activity change -12.13%
* COc1ccc2c3c([nH]c2c1)[C@H](CO)N(Cc1cccc(Cl)c1)CC31CN(C(C)=O)C1 : activity change -65.2%
* COc1ccccc1NC(=O)N1CCCCN2[C@H](CO)[C@@H](c3ccc(-c4cccc(C#N)c4)cc3)[C@H]2C1 : activity change -6.757%
* COc1ccc2c3c([nH]c2c1)[C@H](CO)N(Cc1ccccc1OC)CC31CN(C(C)=O)C1 : activity change -35.93%